No constants are given. Whether binding was seen depends on the method and setting. Binding seen in cells or lysates may run through a third protein. Some entries that bind do so weakly or less than the wild type.

Protein sequences, listed by entry. Tags and fused reporters are not part of them. Lines headed by an entry give the natural chain unless they say otherwise; changes in a name come on top.
UniProt P58753: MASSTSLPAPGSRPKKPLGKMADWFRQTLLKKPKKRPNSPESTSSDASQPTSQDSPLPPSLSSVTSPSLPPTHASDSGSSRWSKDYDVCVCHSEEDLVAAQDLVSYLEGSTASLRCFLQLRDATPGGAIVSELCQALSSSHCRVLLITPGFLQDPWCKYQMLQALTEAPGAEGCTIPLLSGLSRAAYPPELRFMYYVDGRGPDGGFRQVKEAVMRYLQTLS

Test [1] concerns the target T1, interferon gamma receptor (IFNGR1), endogenous in HEK293 cells (human (endogenous in HEK293)) (UniProt P15260).
T1 sequence: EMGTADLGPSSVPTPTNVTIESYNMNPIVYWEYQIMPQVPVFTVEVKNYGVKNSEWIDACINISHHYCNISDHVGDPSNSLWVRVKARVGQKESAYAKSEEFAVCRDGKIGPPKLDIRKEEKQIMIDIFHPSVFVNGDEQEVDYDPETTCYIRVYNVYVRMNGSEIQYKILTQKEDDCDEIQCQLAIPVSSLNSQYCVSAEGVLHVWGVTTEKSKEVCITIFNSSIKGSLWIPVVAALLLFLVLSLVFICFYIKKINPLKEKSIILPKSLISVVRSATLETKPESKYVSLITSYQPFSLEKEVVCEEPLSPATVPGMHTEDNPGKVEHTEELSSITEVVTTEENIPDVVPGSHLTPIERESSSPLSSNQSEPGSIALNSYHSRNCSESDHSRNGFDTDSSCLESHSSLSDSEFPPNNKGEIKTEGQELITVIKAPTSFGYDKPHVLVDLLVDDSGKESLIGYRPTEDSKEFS
Nature of the test: co-IP; HEK293 cells transfected with HA-tagged Mal constructs; precleared lysates incubated at 4°C for at least 2 hr with antibodies to HA or to the interferon gamma receptor (IFNGR1) or control rabbit IgG and protein G beads; Western blot. For orientation: A western blot detects proteins with antibodies after separation by electrophoresis.

Test [2] addresses HA-tagged Mal (MyD88 adaptor-like, encoded by TIRAP), wild type (human) (UniProt P58753). Described as above.

Regarding “Mal mutant construct consisting solely of the TIR domain (from UniProt P58753 84-213) (domain or fragment)”, in test [1], the binding result is “no binding”.

For “HA-tagged S180L variant Mal (from UniProt P58753 1-221)”, the binding entry in test [1] is “binds”.

On to “HA-tagged Mal (MyD88 adaptor-like, encoded by TIRAP), wild type (from UniProt P58753 1-221)”, for which, in test [1], the binding entry is on record as “binds”.

B1: interferon gamma receptor (IFNGR1), endogenous in HEK293 cells (receptor, UniProt P15260 18-489)
chain: EMGTADLGPSSVPTPTNVTIESYNMNPIVYWEYQIMPQVPVFTVEVKNYGVKNSEWIDACINISHHYCNISDHVGDPSNSLWVRVKARVGQKESAYAKSEEFAVCRDGKIGPPKLDIRKEEKQIMIDIFHPSVFVNGDEQEVDYDPETTCYIRVYNVYVRMNGSEIQYKILTQKEDDCDEIQCQLAIPVSSLNSQYCVSAEGVLHVWGVTTEKSKEVCITIFNSSIKGSLWIPVVAALLLFLVLSLVFICFYIKKINPLKEKSIILPKSLISVVRSATLETKPESKYVSLITSYQPFSLEKEVVCEEPLSPATVPGMHTEDNPGKVEHTEELSSITEVVTTEENIPDVVPGSHLTPIERESSSPLSSNQSEPGSIALNSYHSRNCSESDHSRNGFDTDSSCLESHSSLSDSEFPPNNKGEIKTEGQELITVIKAPTSFGYDKPHVLVDLLVDDSGKESLIGYRPTEDSKEFS
Take B1: the binding result in test [2] is “binds”.

(Values after publication PMC4760121.)
